According to paper PMC9502615:
No constants are given. Whether binding was seen depends on the method and setting. In cells and extracts the contact can be indirect. Some results given as binding are weak or reduced against the parent protein; the word gives no strength.

Target: T1, transforming growth factor-activated kinase 1 (human (endogenous in HCC cells)) (UniProt O43318)
T1 sequence: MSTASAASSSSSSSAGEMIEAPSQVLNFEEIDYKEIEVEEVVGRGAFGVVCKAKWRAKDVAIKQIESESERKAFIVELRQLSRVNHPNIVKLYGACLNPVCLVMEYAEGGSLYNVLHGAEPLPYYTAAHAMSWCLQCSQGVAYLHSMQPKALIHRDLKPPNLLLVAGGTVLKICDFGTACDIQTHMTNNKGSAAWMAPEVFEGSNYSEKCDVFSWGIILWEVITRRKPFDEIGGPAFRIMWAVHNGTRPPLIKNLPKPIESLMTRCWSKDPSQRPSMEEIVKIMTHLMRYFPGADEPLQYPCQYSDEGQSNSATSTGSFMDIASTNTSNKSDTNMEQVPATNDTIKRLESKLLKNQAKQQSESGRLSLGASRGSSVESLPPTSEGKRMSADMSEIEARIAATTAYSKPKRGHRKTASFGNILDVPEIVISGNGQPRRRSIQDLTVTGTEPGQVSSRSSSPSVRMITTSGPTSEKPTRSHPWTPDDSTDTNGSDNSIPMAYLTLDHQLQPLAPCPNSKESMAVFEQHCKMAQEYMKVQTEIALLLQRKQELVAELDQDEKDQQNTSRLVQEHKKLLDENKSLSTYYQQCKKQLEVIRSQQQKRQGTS
Experiment: co-IP; 1 x 10^7 HCC cells lysed in IP lysis buffer (50 mM Tris-HCl, 150 mM NaCl, 1% Triton X-100, 1 mM EDTA, 10% glycerol, protease inhibitors, pH 7.4); indicated antibodies overnight at 4 °C, protein G agarose; five washes with 50 mM Tris-HCl, 300 mM NaCl, 1% Triton X-100, 1 mM EDTA, pH 7.4

binding: binds
B1: transforming growth factor-activated kinase-binding protein 3 (protein, UniProt Q8N5C8 1-712)
chain: MAQSSPQLDIQVLHDLRQRFPEIPEGVVSQCMLQNNNNLEACCRALSQESSKYLYMEYHSPDDNRMNRNRLLHINLGIHSPSSYHPGDGAQLNGGRTLVHSSSDGHIDPQHAAGKQLICLVQEPHSAPAVVAATPNYNPFFMNEQNRSAATPPSQPPQQPSSMQTGMNPSAMQGPSPPPPPPSYMHIPRYSTNPITVTVSQNLPSGQTVPRALQILPQIPSNLYGSPGSIYIRQTSQSSSGRQTPQSTPWQSSPQGPVPHYSQRPLPVYPHQQNYQPSQYSPKQQQIPQSAYHSPPPSQCPSPFSSPQHQVQPSQLGHIFMPPSPSTTPPHPYQQGPPSYQKQGSHSVAYLPYTASSLSKGSMKKIEITVEPSQRPGTAINRSPSPISNQPSPRNQHSLYTATTPPSSSPSRGISSQPKPPFSVNPVYITYTQPTGPSCTPSPSPRVIPNPTTVFKITVGRATTENLLNLVDQEERSAAPEPIQPISVIPGSGGEKGSHKYQRSSSSGSDDYAYTQALLLHQRARMERLAKQLKLEKEELERLKSEVNGMEHDLMQRRLRRVSCTTAIPTPEEMTRLRSMNRQLQINVDCTLKEVDLLQSRGNFDPKAMNNFYDNIEPGPVVPPKPSKKDSSDPCTIERKARRISVTSKVQADIHDTQAAAADEHRTGSTQSPRTQPRDEDYEGAPWNCDSCTFLNHPALNRCEQCEMPRYT
